Reference: article PMC7788135
No constants are given. Whether binding was seen depends on the method and setting.

Target: BK–OsMS188∆C (rice (Oryza sativa L.))
Test: two-hybrid; Clontech two-hybrid system, yeast AH109; OsMS188 in pGBKT7 (BD), partners in pGADT7 (AD); growth on SD/-Ade/-His/-Trp/-Leu/X-a-Gal media

- binding: no binding
B1: GAMYB (protein, UniProt Q0JIC2 1-553)
chain: MYRVKSESDCDMIHQEQMDSPVADDGSSGGSPHRGGGPPLKKGPWTSAEDAILVDYVKKHGEGNWNAVQKNTGLFRCGKSCRLRWANHLRPNLKKGAFTAEEERLIIQLHSKMGNKWARMAAHLPGRTDNEIKNYWNTRIKRCQRAGLPIYPTSVCNQSSNEDQQCSSDFDCGENLSNDLLNANGLYLPDFTCDNFIANSEALPYAPHLSAVSISNLLGQSFASKSCSFMDQVNQTGMLKQSDGVLPGLSDTINGVISSVDQFSNDSEKLKQAVGFDYLHEANSTSKIIAPFGGALNGSHAFLNGNFSASRPTSGPLKMELPSLQDTESDPNSWLKYTVAPALQPTELVDPYLQSPAATPSVKSECASPRNSGLLEELIHEAQTLRSGKNQQTSVISSSSSVGTPCNTTVLSPEFDMCQEYWEEQHPGPFLNDCAPFSGNSFTESTPPVSAASPDIFQLSKVSPAQSTSMGSGEQVMGPKYEPGDTSPHPENFRPDALFSGNTADPSVFNNAIAMLLGNDLSIDCRPVLGDGIMFNSSSWSNMPHACEMSEFK
